Test: Plasma biological parameters after NCP-supplemented diet in rats
Assay type: in vivo
Protocol: Eight-week old Sprague-Dawley rats (Charles Rivers, Lyon, France) were used. They were placed in individual cages and acclimatized for two weeks to our animal facility. During this period they received standard rodent chow (A04, UAR, Villemoisson-sur-Orge, France) and water ad libitum.
After acclimatization twenty eight-month old rats were randomized into three groups in order to receive for two weeks a standard diet either alone (n=6; control group) or supplemented with NCP either 5 mg/kg/d (n=7, NCP5 group) or 50 mg/kg/d (n=7; NCP50 group). Their weight, behaviour and mortality were monitored throughout the feeding period.
At the end of the feeding period, the rats, in the fasted state, were anesthetized by isoflurane inhalation and euthanized by decapitation.
Mixed blood was collected onto heparinized tubes and rapidly centrifuged. The liver was immediately removed and weighed, and a sample was cut off, frozen in liquid nitrogen, and stored at −80° C. until analysis. For the jejunum and ileum, the intestine was washed with cold NaCl (0.9%) and reverted. Thereafter the intestinal mucosa was scraped, rapidly frozen in liquid nitrogen, and stored at −80° C. until analysis. Two muscles of the hindlimb, tibialis (rich in type II fibres) and soleus (rich in type I fibres), and the right kidney were rapidly removed, weighed, frozen in liquid nitrogen, and stored at −80° C. until analysis. Body composition was assessed by dissection and lean mass (carcass), visceral fat mass, sub-cutaneous fat mass (subcutaneous fat and skin) and mass of the viscera were determined.
Biological parameters studied were: • in tissues: NCP, protein and amino acid contents • in plasma: amino acids, liver function tests (plasma aspartate aminotransferase, alanine aminotransferase, alkaline phosphatase, and bilirubin), muscle enzymes (plasma creatine kinase, and lactate dehydrogenase), plasma electrolytes (sodium, potassium, chloride, bicarbonates), total protein, urea, creatinine, calcium, phosphate, magnesium, uric acid, glucose, cholesterol and triglycerides. […]

## NCCCCNC(N)=O [NCP, 1-(4-aminobutyl) urea]
NCP 5 and 50 mg/kg/d vs control
  other plasma amino acids: No differences
NCP 5 and 50 mg/kg/d, p=0.06
  plasma glutamine, dose-effect relationship: trend for a NCP dose-effect relationship
NCP50 group vs controls, FIG. 1
  plasma glutamine levels: significantly lower

Source: patent US9533946B1, “N-carbamoylputrescine to enhance muscle protein synthesis” (CITRAGE, priority 2016, dated 2017)
